Test results reported in paper PMC7652922.
These are yes or no findings as the source states them, for the method shown. Binding seen in cells or lysates may run through a third protein. Binding can be weak; no strength is given.

Biological target: T1, endothelial nitric oxide synthase (bovine (endogenous in BAECs)) (UniProt P29473)
T1 sequence: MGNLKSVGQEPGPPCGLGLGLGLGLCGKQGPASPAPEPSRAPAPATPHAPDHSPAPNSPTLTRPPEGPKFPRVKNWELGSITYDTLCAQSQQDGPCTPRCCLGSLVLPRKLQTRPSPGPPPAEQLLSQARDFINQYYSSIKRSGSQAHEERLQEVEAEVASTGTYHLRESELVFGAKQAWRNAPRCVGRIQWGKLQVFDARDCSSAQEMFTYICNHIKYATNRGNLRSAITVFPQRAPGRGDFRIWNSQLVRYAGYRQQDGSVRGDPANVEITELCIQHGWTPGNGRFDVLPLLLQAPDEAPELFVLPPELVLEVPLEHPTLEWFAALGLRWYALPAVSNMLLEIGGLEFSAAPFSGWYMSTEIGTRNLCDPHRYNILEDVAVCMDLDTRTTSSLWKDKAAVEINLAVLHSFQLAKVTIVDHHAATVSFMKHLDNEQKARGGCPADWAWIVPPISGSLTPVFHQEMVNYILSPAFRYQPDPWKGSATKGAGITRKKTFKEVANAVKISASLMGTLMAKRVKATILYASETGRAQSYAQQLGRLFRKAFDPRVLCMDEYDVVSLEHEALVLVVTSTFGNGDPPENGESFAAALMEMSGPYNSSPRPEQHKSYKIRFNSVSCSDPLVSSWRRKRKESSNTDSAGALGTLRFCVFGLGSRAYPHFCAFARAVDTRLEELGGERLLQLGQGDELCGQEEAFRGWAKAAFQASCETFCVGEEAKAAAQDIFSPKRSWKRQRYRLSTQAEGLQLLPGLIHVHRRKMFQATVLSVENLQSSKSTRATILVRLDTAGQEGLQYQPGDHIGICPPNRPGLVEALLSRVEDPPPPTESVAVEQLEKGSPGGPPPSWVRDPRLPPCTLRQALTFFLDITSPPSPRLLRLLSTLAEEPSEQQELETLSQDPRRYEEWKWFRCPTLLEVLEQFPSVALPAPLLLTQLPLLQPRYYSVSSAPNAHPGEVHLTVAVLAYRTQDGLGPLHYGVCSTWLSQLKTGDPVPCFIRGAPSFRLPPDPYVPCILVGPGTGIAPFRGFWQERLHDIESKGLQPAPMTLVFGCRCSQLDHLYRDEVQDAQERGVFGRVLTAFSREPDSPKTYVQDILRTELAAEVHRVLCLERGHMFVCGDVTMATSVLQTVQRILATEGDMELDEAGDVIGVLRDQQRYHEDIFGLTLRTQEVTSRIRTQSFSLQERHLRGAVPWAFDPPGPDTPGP
Experiment: pull-down; eNOS affinity precipitated from BAEC lysate on 2',5'-ADP Sepharose beads (4 °C, 2 h; washed with PBS with 500 mM NaCl), bound proteins blotted for OGT and OGA; cells in control (5.5 mM) or low (1 mM) glucose for 6 h, also with AMPKα1 siRNA or AICAR

## O-GlcNAc transferase (bovine (endogenous in BAECs)) (enzyme)
  binding: binds
